Some entries share one result that the patent states for a list of compounds. For part of these data: At least one structure is not confirmed: it was looked up by name or label, or the drawing left a doubt.
How the values were obtained:
[1] = 7-day oral gavage study, metabolic parameters, body weight and food consumption in CR SD rats; format: in vivo, rat; settings: 15 mg/kg, not statistically significant
Protocol: Two groups (n=5) of CR SD rats (approximately 300 g) were treated with 2 dose levels of perfluorinated compounds (15 and 25 mg/kg/day body weight). Animals were administered test substances, dissolved in corn oil, by oral gavage, daily for 7 days. One group of 20 CR SD rays was also treated with vehicle (corn oil) alone. Body weight and food consumption were monitored daily.
Twenty-four hours after the last dose the animals were killed by an increasing concentration of carbon dioxide. Blood was collected by cardiac puncture and plasma was prepared and stored at −70° C. until analysed.
Plasma was analysed for triglycerides, cholesterol, and glucose, using kits purchased from Sigma. Concentrations of plasma insulin were determined using a commercially available enzyme-immunoassay-based kit from Amersham Biosciences. All assays were carried out as specified by the manufacturer.

[2] = system: three human tumour-derived cell lines (HT-29, MCF7, PC3); assay: SRB growth inhibition, summary over the three human tumour cell lines; format: cell-based; settings: over HT-29, MCF7 and PC3
Protocol: The effect of perfluorinated compounds on the inhibition of tumour cell growth was assessed iii vitro using three human tumour-derived cell lines. Cancer cell lines were tested using the sulphorhodamine B (SRB) assay (which measures cellular protein and is directly related to cell number), which is utilised by the […] to screen anti-cancer agents.
HT-29 cells (human colon tumour-derived), MCF7 cells (human breast cancer-derived) and PC3 cells (human prostate cancer-derived) were harvested and diluted (to 5×10^4 cells per ml, 1×10^5 cells per ml and 7.5×10^4 cells per ml respectively) in RPMI 1640 medium containing 5% FBS, 2 mM glutamine and. 50 μg/ml gentamicin. 100 μl of cell suspension per well was added to 96 well plates and allowed to attach overnight. Cells were exposed to test compounds dissolved in DMSO in 100 μl of medium to give final drug concentrations of 0, 0.3, 1, 3, 10, 30, 100, 300, 1000 and 3000 μM (and DMSO at 0.25%). (n=6 for each drug concentration). After 48 hours, cells were fixed in 10% trichloroacetic acid (TCA) at 4° C. for 1-2 hours then washed using water and subsequently air-dried. […] Plates were air-dried and bound stain was solubilised in 10 mM Tris base and the absorbance read at 520 nm.

SMILES | Plasma insulin reduced by [1] | IC50 [2]
O=C(O)C(F)(F)C(F)(F)F [PFPA, Perfluropropionic acid] | 30-40% | –
O=C(O)C(F)(F)C(F)(F)C(F)(F)C(F)(F)C(F)(F)C(F)(F)C(F)(F)F [PFOA, Perfluorooctanoic acid] | – | 200 to 600 µM
O=C(O)C(F)(F)C(F)(F)C(F)(F)C(F)(F)C(F)(F)C(F)(F)F [PFHA, Perfluoroheptanoic acid] | 30-40% | –

Source: US20060052451A1, “Method” (priority 2002, published 2006)
